Results deposited as PubChem BioAssay AID743458 (Peter MacCallum Cancer Centre, 2014).

- Assay: 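Find knock-downs that make vorinostat-resistant colon cancer cells sensitive again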 (follow-up of hits)
- System: human HCT116-VR colon cancer cells made resistant to vorinostat
- Reagents: single siRNA or pool against human genes, 25 nM per single siRNA
- Duration: about 72 h after transfection, including 24 h of drug
- Conditions: vorinostat, 2.5 µM final, for 24 h
- Measurement: 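Live-cell fluorescent viability and luminescent caspase 3/7 activity after vorinostat treatment, background subtracted, mean of duplicate plates, as fold change over mock-transfected wells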
- Direction: viability relative to mock: higher = more living cells than mock; caspase activity relative to mock: higher = more apoptosis than mock
- Rule for the call: 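An siRNA counts as active if classed as reduced viability or as caspase activation, otherwise inactive; a hit class needed wells that remained healthy in the absence of drug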
Here is a random part of about 1,800 reagents. In the full data, 732 (41%) are marked active. 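Calls are per siRNA reagent; a gene was deemed confirmed only if most of its four siRNAs scored.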 Unmarked entries are inactive. The numbers tell different reagents against one gene apart. No sequences are given here.

| Gene | reagent no. | viability relative to mock | caspase activity relative to mock | viability hit class | caspase hit class |
| --- | --- | --- | --- | --- | --- |
| OR2W5 | 1 | 0.47 (active) | 3.46 | reduced viability | caspase activation |
| OR2W5 | 2 | 0.77 (active) | 2.76 | no change | caspase activation |
| OR2W5 | 3 | 0.53 (active) | 2.62 | reduced viability | caspase activation |
| OR2W5 | 4 | 0.72 | 2.56 | no change | no change |
| BEGAIN (brain enriched guanylate kinase associated) | 1 | 0.5 (active) | 5.81 | reduced viability | caspase activation |
| BEGAIN (brain enriched guanylate kinase associated) | 2 | 0.69 (active) | 4.1 | no change | caspase activation |
| BEGAIN (brain enriched guanylate kinase associated) | 3 | 0.94 | 0.86 | no change | no change |
| BEGAIN (brain enriched guanylate kinase associated) | 4 | 1 (active) | 2.96 | no change | caspase activation |
| DNTTIP2 (deoxynucleotidyltransferase terminal interacting protein 2) | 1 | 0.55 (active) | 1 | reduced viability | no change |
| DNTTIP2 (deoxynucleotidyltransferase terminal interacting protein 2) | 2 | 0.6 | 0.94 | no change | no change |
| DNTTIP2 (deoxynucleotidyltransferase terminal interacting protein 2) | 3 | 0.55 (active) | 1.38 | reduced viability | no change |
| DNTTIP2 (deoxynucleotidyltransferase terminal interacting protein 2) | 4 | 0.58 | 1.01 | no change | no change |
| HYAL2 (hyaluronidase 2) | 1 | 0.97 | 2.28 | no change | no change |
| HYAL2 (hyaluronidase 2) | 2 | 0.56 (active) | 6.38 | reduced viability | caspase activation |
| HYAL2 (hyaluronidase 2) | 3 | 0.47 (active) | 2.06 | reduced viability | no change |
| HYAL2 (hyaluronidase 2) | 4 | 0.86 | 1.6 | no change | no change |
| ENDOU (endonuclease, poly(U) specific) | 1 | 1.08 | 1.46 | no change | no change |
| ENDOU (endonuclease, poly(U) specific) | 2 | 0.3 (active) | 2.71 | reduced viability | caspase activation |
| ENDOU (endonuclease, poly(U) specific) | 3 | 0.82 | 0.94 | no change | no change |
| ENDOU (endonuclease, poly(U) specific) | 4 | 0.94 | 0.92 | no change | no change |
| MICU1 (mitochondrial calcium uptake 1) | 1 | 0.84 | 1.99 | no change | no change |
| MICU1 (mitochondrial calcium uptake 1) | 2 | 1.03 | 1.02 | no change | no change |
| MICU1 (mitochondrial calcium uptake 1) | 3 | 0.93 | 2.25 | no change | no change |
| MICU1 (mitochondrial calcium uptake 1) | 4 | 0.5 (active) | 2.04 | reduced viability | no change |
| GPR12 (G protein-coupled receptor 12) | 1 | 0.54 (active) | 1.8 | reduced viability | no change |
| GPR12 (G protein-coupled receptor 12) | 2 | 0.82 | 1.24 | no change | no change |
| GPR12 (G protein-coupled receptor 12) | 3 | 0.84 | 0.94 | no change | no change |
| GPR12 (G protein-coupled receptor 12) | 4 | 0.57 | 2.21 | no change | no change |
| ADRA2C (adrenoceptor alpha 2C) | 1 | 0.5 (active) | 1.6 | reduced viability | no change |
| ADRA2C (adrenoceptor alpha 2C) | 2 | 1.01 | 0.86 | no change | no change |
| ADRA2C (adrenoceptor alpha 2C) | 3 | 0.68 | 1.18 | no change | no change |
| ADRA2C (adrenoceptor alpha 2C) | 4 | 0.98 | 1.07 | no change | no change |
| GRP (gastrin releasing peptide) | 1 | 0.11 | 1.38 | no change | no change |
| GRP (gastrin releasing peptide) | 2 | 0.62 (active) | 3.18 | no change | caspase activation |
| GRP (gastrin releasing peptide) | 3 | 0.79 | 2.48 | no change | no change |
| GRP (gastrin releasing peptide) | 4 | 0.66 | 0.98 | no change | no change |
| OR7E85BP | 1 | 0.72 | 0.57 | no change | no change |
| OR7E85BP | 2 | 0.22 (active) | 4.34 | reduced viability | caspase activation |
| OR7E85BP | 3 | 0.52 (active) | 1.94 | reduced viability | no change |

Ordered by “caspase activity relative to mock” (high to low): 5 of the entries above.
| Gene | reagent no. | viability relative to mock | caspase activity relative to mock | viability hit class | caspase hit class |
| --- | --- | --- | --- | --- | --- |
| BEGAIN (brain enriched guanylate kinase associated) | 1 | 0.5 (active) | 5.81 | reduced viability | caspase activation |
| BEGAIN (brain enriched guanylate kinase associated) | 2 | 0.69 (active) | 4.1 | no change | caspase activation |
| OR2W5 | 3 | 0.53 (active) | 2.62 | reduced viability | caspase activation |
| OR2W5 | 4 | 0.72 | 2.56 | no change | no change |
| BEGAIN (brain enriched guanylate kinase associated) | 3 | 0.94 | 0.86 | no change | no change |
